Results are given in words; binding and its absence hold for the method and conditions named. Some binding calls cover weakened binding; strength is not graded here. Sequences can lack the tags named with a protein.
Target: biotinylated p53 (wild type) (UniProt P04637)
Experiment: AlphaScreen or HTRF; screen of the E3 protein array (258 FLAG-E3s, crude) against biotinylated p53 as bait, conditions as in the model assay, robotic dispensing; signal with p53 divided by signal with biotinylated DHFR; hits: relative value higher than 8

| binding | Binder |
| --- | --- |
| binds | FLAG-DCST1 (enzyme, UniProt Q5T197 1-706) MDIKHHQNGTRGQRRKQPHTTVQRLLTWGLPVSCSWFLWRQPGEFPVTALLLGAGAGGLLAIGLFQLLVNPMNIYEEQKIMFLYSLVGLGAMGWGTSPHIRCASLLLVPKMLGKEGRLFVLGYALAAIYVGPVANLRHNLNNVIASLGCTVELQINNTRAAWRISTAPLRAMFKDLLSSKELLRAETRNISATFEDLDAQVNSETGYTPEDTMDSGETAQGREARQAPASRLHLSTQKMYELKTKLRCSYVVNQAILSCRRWFDRKHEQCMKHIWVPLLTHLLCLPMKFKFFCGIAKVMEVWCRNRIPVEGNFGQTYDSLNQSIRGLDGEFSANIDFKEEKQAGVLGLNTSWERVSTEVRDYVYRQEARLEWALGLLHVLLSCTFLLVLHASFSYMDSYNHDIRFDNIYISTYFCQIDDRRKKLGKRTLLPLRKAEEKTVIFPCKPTIQASEMSNVVRELLETLPILLLLVVLCGLDWALYSIFDTIRHHSFLQYSFRSSHKLEVKVGGDSMLARLLRKTIGALNTSSETVMESNNMPCLPQPVGLDARAYWRAAVPIGLLVCLCLLQAFGYRLRRVIAAFYFPKREKKRILFLYNDLLKKRAAFTKLRRAAILRRERQQKAPRHPLADILHRGCPLLRRWLCRRCVVCQAPETPESYVCRTLDCEAVYCWSCWDDMRQRCPVCTPREELSSSAFSDSNDDTAYAG |
| binds | FLAG-RNF6 (enzyme, UniProt Q9Y252 1-685) MNQSRSRSDGGSEETLPQDHNHHENERRWQQERLHREEAYYQFINELNDEDYRLMRDHNLLGTPGEITSEELQQRLDGVKEQLASQPDLRDGTNYRDSEVPRESSHEDSLLEWLNTFRRTGNATRSGQNGNQTWRAVSRTNPNNGEFRFSLEIHVNHENRGFEIHGEDYTDIPLSDSNRDHTANRQQRSTSPVARRTRSQTSVNFNGSSSNIPRTRLASRGQNPAEGSFSTLGRLRNGIGGAAGIPRANASRTNFSSHTNQSGGSELRQREGQRFGAAHVWENGARSNVTVRNTNQRLEPIRLRSTSNSRSRSPIQRQSGTVYHNSQRESRPVQQTTRRSVRRRGRTRVFLEQDRERERRGTAYTPFSNSRLVSRITVEEGEESSRSSTAVRRHPTITLDLQVRRIRPGENRDRDSIANRTRSRVGLAENTVTIESNSGGFRRTISRLERSGIRTYVSTITVPLRRISENELVEPSSVALRSILRQIMTGFGELSSLMEADSESELQRNGQHLPDMHSELSNLGTDNNRSQHREGSSQDRQAQGDSTEMHGENETTQPHTRNSDSRGGRQLRNPNNLVETGTLPILRLAHFFLLNESDDDDRIRGLTKEQIDNLSTRHYEHNSIDSELGKICSVCISDYVTGNKLRQLPCMHEFHIHCIDRWLSENCTCPICRQPVLGSNIANNG |
| binds | FLAG-MSL2 (enzyme, UniProt Q9HCI7 1-577) MNPVNATALYISASRLVLNYDPGDPKAFTEINRLLPYFRQSLSCCVCGHLLQDPIAPTNSTCQHYVCKTCKGKKMMMKPSCSWCKDYEQFEENKQLSILVNCYKKLCEYITQTTLARDIIEAVDCSSDILALLNDGSLFCEETEKPSDSSFTLCLTHSPLPSTSEPTTDPQASLSPMSESTLSIAIGSSVINGLPTYNGLSIDRFGINIPSPEHSNTIDVCNTVDIKTEDLSDSLPPVCDTVATDLCSTGIDICSFSEDIKPGDSLLLSVEEVLRSLETVSNTEVCCPNLQPNLEATVSNGPFLQLSSQSLSHNVFMSTSPALHGLSCTAATPKIAKLNRKRSRSESDSEKVQPLPISTIIRGPTLGASAPVTVKRESKISLQPIATVPNGGTTPKISKTVLLSTKSMKKSHEHGSKKSHSKTKPGILKKDKAVKEKIPSHHFMPGSPTKTVYKKPQEKKGCKCGRATQNPSVLTCRGQRCPCYSNRKACLDCICRGCQNSYMANGEKKLEAFAVPEKALEQTRLTLGINVTSIAVRNASTSTSVINVTGSPVTTFLAASTHDDKSLDEAIDMRFDC |
| binds | FLAG-TRIM65 (enzyme, UniProt Q6PJ69 1-517) MAAQLLEEKLTCAICLGLYQDPVTLPCGHNFCGACIRDWWDRCGKACPECREPFPDGAELRRNVALSGVLEVVRAGPARDPGPDPGPGPDPAARCPRHGRPLELFCRTEGRCVCSVCTVRECRLHERALLDAERLKREAQLRASLEVTQQQATQAEGQLLELRKQSSQIQNSACILASWVSGKFSSLLQALEIQHTTALRSIEVAKTQALAQARDEEQRLRVHLEAVARHGCRIRELLEQVDEQTFLQESQLLQPPGPLGPLTPLQWDEDQQLGDLKQLLSRLCGLLLEEGSHPGAPAKPVDLAPVEAPGPLAPVPSTVCPLRRKLWQNYRNLTFDPVSANRHFYLSRQDQQVKHCRQSRGPGGPGSFELWQVQCAQSFQAGHHYWEVRASDHSVTLGVSYPQLPRCRLGPHTDNIGRGPCSWGLCVQEDSLQAWHNGEAQRLPGVSGRLLGMDLDLASGCLTFYSLEPQTQPLYTFHALFNQPLTPVFWLLEGRTLTLCHQPGAVFPLGPQEEVLS |
| binds | FLAG-DZIP3 (enzyme, UniProt Q86Y13 1-1208) MDSLPDEFFVRHPAVEDQRKEETENKLEKSSGQLNKQENDIPTDLVPVNLLLEVKKLLNAINTLPKGVVPHIKKFLQEDFSFQTMQREVAANSQNGEEIVPALTLRFLITQLEAALRNIQAGNYTAHQINIGYYLTLLFLYGVALTERGKKEDYTEAENKFLVMKMMIQENEICENFMSLVYFGRGLLRCAQKRYNGGLLEFHKSLQEIGDKNDHWFDIDPTEDEDLPTTFKDLLNNFIKTTESNIMKQTICSYLDCERSCEADILKNTSYKGFFQLMCSKSCCVYFHKICWKKFKNLKYPGENDQSFSGKKCLKEGCTGDMVRMLQCDVPGIVKILFEVVRKDEYITIENLGASYRKLISLKITDTDIRPKISLKFNTKDEMPIFKLDYNYFYHLLHIIIISGTDIVRQIFDEAMPPPLLKKELLIHKNVLESYYNHLWTNHPLGGSWHLLYPPNKELPQSKQFDLCLLLALIKHLNVFPAPKKGWNMEPPSSDISKSADILRLCKYRDILLSEILMNGLTESQFNSIWKKVSDILLRLGMMQEDIDKVKENPIENISLDYHQLSVYLGIPVPEIIQRMLSCYQQGIALQSITGSQRIEIEELQNEEEELSPPLMEYNINVKSHPEIQFAEINKDGTSIPSESSTESLKDLQEVKSKQRKKKKTKNKKNKDSKEDQVPYVVEKEEQLRKEQANPHSVSRLIKDDASDVQEDSAMEDKFYSLDELHILDMIEQGSAGKVTTDYGETEKERLARQRQLYKLHYQCEDFKRQLRTVTFRWQENQMQIKKKDKIIASLNQQVAFGINKVSKLQRQIHAKDNEIKNLKEQLSMKRSQWEMEKHNLESTMKTYVSKLNAETSRALTAEVYFLQCRRDFGLLHLEQTEKECLNQLARVTHMAASNLESLQLKAAVDSWNAIVADVRNKIAFLRTQYNEQINKVKQGFALSTLPPVQLPPPPPSPEILMQQFLGRPLVKESFFRPILTVPQMPAVCPGVVSATGQPRAPLMTGIAWALPAPVGDAVPPSAGLRSDPSIMNWERITDRLKTAFPQQTRKELTDFLRKLKDAYGKSLSELTFDEIVCKISQFIDPKKSQSQGKSVSNVNCVSPSHSPSQPDAAQPPKPAWRPLTSQGPATWEGASNPDEEEEEEEPCVICHENLSPENLSVLPCAHKFHAQCIRPWLMQQGTCPTCRLHVLLPEEFPGHPSRQLPKI |
| binds | FLAG-ZNF645 (enzyme, UniProt Q8N7E2 1-425) MNKMPAGEQECEYNKEGKYYSKGVKLVRKKKKIPGYRWGDIKINIIGEKDDLPIHFCDKCDLPIKIYGRIIPCKHAFCYHCANLYDKVGYKVCPRCRYPVLRIEAHKRGSVFMCSIVQQCKRTYLSQKSLQAHIKRRHKRARKQVTSASLEKVRPHIAPPQTEISDIPKRLQDRDHLSYIPPEQHTMVSLPSVQHMLQEQHNQPHKDIQAPPPELSLSLPFPIQWETVSIFTRKHGNLTVDHIQNNSDSGAKKPTPPDYYPECQSQPAVSSPHHIIPQKQHYAPPPSPSSPVNHQMPYPPQDVVTPNSVRSQVPALTTTYDPSSGYIIVKVPPDMNSPPLRAPQSQNGNPSASEFASHHYNLNILPQFTENQETLSPQFTQTDAMDHRRWPAWKRLSPCPPTRSPPPSTLHGRSHHSHQRRHRRY |

Source: paper PMC4889105
